Measurements published in patent US20250049035A1, “MICROBIOCIDAL BICYCLE HETEROCYCLIC DERIVATIVES” (SYNGENTA CROP PROTECTION AG, priority 2021, published 2025).
Some results were stated once for a whole list of compounds, not compound by compound.

Tests used:
Assay type in all cases: in vivo
[1] = tested on: Magnaporthe grisea (Pyricularia orvzae); settings: 200 ppm; rice leaf segments cv. Ballila, inoculated 2 days after application, assessed 5-7 days after application; compared to untreated control
[2] = tested on: Gibberella zeae (Fusarium graminearum); settings: 200 ppm; wheat spikelets cv. Monsun, inoculated 1 day after application, assessed 6-8 days after application; compared to untreated control
[3] = tested on: Fusarium culmorum; settings: 200 ppm; wheat spikelets cv. Monsun, inoculated 1 day after application, assessed 6-8 days after application; compared to untreated control

Cc1c(C2CN(C(=O)c3cc(-c4ccc(F)cc4)on3)Cc3sccc32)cnn1C (stereo not drawn) [Compound P-30, [4-(1,5-dimethylpyrazol-4-yl)-5,7-dihydro-4H-thieno[2,3-c]pyridin-6-yl]-[5-(4-fluorophenyl)isoxazol-3-yl]methanone]
control of Magnaporthe grisea [1]: at least 80%

C[C@H]1c2sccc2[C@@](C)(c2cnn(C)c2)CN1C(=O)c1nnc(-c2ccc(F)cc2F)s1 (racemic) [Compound P-10, [5-(2,4-difluorophenyl)-1,3,4-thiadiazol-2-yl]-[rac-(4S,7R)-4,7-dimethyl-4-(1-methylpyrazol-4-yl)-5,7-dihydrothieno[2,3-c]pyridin-6-yl]methanone]
control of Gibberella zeae [2]: at least 80%

Cc1c(C2CN(C(=O)c3nnc(-c4ccc(F)cc4F)s3)Cc3sccc32)cnn1C (stereo not drawn) [Compound P-25, [5-(2,4-difluorophenyl)-1,3,4-thiadiazol-2-yl]-[4-(1,5-dimethylpyrazol-4-yl)-5,7-dihydro-4H-thieno[2,3-c]pyridin-6-yl]methanone]
control of Fusarium culmorum [3]: at least 80% | control of Gibberella zeae [2]: at least 80%

C[C@H]1c2sccc2[C@@H](c2cnn(C)c2)CN1C(=O)c1nnc(-c2ccc(F)cc2F)s1 (racemic) [Compound P-15, [5-(2,4-difluorophenyl)-1,3,4-thiadiazol-2-yl]-[rac-(4R,7S)-7-methyl-4-(1-methylpyrazol-4-yl)-5,7-dihydro-4H-thieno[2,3-c]pyridin-6-yl]methanone]
control of Fusarium culmorum [3]: at least 80%

Cn1cc(C2(C)CN(C(=O)c3cc(-c4ccc(F)cc4F)on3)Cc3sccc32)cn1 (stereo not drawn) [Compound P-19, [5-(2,4-difluorophenyl)isoxazol-3-yl]-[4-methyl-4-(1-methylpyrazol-4-yl)-5,7-dihydrothieno[2,3-c]pyridin-6-yl]methanone]
control of Magnaporthe grisea [1]: at least 80%
